Experimental data reported in PMC12594171, “DKK3-LRP1 complex and a chemical inhibitor regulate Aβ clearance in models of Alzheimer’s disease” (Science Advances, 2025).
No constants are given. Whether binding was seen depends on the method and setting. Binding seen in cells or lysates may run through a third protein. These calls come from enrichment with a bait or labelling near it, and not all partners need be listed. Sequences can lack the tags named with a protein.

By UniProt entry, the sequences of proteins in these tests, tags left out. Residues count along the entry.
UniProt O75197, residues 32-1615: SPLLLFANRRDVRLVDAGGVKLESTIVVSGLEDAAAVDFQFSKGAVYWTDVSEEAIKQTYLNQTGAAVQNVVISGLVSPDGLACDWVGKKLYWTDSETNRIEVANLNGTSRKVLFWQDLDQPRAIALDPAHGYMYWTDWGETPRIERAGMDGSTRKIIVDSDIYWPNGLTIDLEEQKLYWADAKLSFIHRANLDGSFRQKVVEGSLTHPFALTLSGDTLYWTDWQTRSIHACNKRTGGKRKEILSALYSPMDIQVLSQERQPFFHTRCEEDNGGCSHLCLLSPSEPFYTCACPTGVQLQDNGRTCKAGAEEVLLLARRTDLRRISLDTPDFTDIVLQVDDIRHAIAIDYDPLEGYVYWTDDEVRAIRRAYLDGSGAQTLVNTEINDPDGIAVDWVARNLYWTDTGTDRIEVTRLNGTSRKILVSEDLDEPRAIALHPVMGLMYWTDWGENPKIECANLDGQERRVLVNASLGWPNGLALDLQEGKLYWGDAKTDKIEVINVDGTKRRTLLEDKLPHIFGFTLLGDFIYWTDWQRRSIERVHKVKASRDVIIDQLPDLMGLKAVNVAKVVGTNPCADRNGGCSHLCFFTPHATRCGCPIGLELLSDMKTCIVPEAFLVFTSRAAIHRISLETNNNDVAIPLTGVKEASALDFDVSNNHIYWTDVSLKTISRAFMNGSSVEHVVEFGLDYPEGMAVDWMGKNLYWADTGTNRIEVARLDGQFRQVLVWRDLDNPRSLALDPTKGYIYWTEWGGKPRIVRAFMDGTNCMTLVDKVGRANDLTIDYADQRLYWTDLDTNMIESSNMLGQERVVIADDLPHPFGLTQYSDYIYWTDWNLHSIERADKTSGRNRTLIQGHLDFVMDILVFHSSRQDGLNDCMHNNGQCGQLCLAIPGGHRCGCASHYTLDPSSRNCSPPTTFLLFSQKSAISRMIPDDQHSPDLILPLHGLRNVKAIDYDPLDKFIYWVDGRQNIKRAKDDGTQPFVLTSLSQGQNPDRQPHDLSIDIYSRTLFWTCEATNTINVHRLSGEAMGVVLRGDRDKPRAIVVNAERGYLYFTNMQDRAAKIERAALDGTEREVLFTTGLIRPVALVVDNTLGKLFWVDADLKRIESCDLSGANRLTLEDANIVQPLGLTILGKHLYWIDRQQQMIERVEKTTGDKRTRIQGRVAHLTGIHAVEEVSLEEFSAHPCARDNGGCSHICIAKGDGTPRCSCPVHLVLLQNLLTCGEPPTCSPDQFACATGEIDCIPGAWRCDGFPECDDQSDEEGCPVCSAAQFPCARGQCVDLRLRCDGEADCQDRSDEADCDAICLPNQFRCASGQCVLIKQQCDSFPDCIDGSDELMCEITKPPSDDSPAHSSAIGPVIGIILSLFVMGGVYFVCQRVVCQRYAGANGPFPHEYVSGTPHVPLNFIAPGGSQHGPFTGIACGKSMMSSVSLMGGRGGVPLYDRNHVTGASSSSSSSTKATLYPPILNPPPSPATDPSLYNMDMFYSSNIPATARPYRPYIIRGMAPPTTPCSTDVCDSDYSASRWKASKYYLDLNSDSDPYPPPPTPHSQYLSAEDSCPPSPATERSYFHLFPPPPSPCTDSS

Biological target: T1, Flag-tagged DKK4 (UniProt Q9UBT3)
T1 sequence: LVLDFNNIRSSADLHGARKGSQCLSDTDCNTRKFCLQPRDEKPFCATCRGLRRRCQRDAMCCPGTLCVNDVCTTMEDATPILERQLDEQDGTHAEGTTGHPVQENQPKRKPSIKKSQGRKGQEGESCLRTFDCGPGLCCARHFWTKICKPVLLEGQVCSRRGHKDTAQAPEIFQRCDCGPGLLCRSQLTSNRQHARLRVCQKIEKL
Test: affinity purification with mass spectrometry; total extract of HEK293 DKK4+ cells fractionated on Superose 6; DKK4 peak fractions precipitated with anti-Flag M2 gel or anti-DKK4 antibody; 20 mM Hepes pH 7.9, 200 mM NaCl, 4°C overnight

“low-density lipoprotein receptor-related protein 1 (LRP1), endogenous in HEK293 (human (endogenous in HEK293))” was tested, and the binding was “binds”.
For “LRP5, endogenous in HEK293 (from UniProt O75197 32-1615) (receptor)”, the binding was “binds”.
